Measured values as given in patent publication US4965250A, “Peptide compounds having a nitrogenous polycyclic structure” (Adir ET CIE, priority 1987, dated 1990).
At least one peptide structure holds a part that was inferred or is arguable (an end, a ring closure or a residue). Residues, ends and D or L forms follow the SMILES beside them.

What was measured:
[1] = test system: polynuclear leukocytes present in the whole blood of dogs; assay type: cell-based; conditions: latex beads 1.8 μm
Description: The compounds according to the invention were tested for their capacity to increase non-specific phagocytosis. This test consists in measuring, after treatment by flow cytometry, the capacity of the polynuclear leukocytes present in the whole blood of dogs to phagocytose latex beads 1.8 μm in diameter, on the one hand in the absence (control) and on the other hand in the presence of a compound of the invention.

[2] = test system: delayed hypersensitivity to oxazolone; assay: Delayed hypersensitivity to oxazolone (ear weight); assay type: in vivo; conditions: seven days after sensitization to oxazolone
[3] = test system: Klebsiella pneumoniae strain 7823; assay: Increase in the resistance of animals to infection; assay type: in vivo; conditions: 60 μg per animal, 48 hours before IP inoculation of Klebsiella pneumoniae strain 7823, female Swiss mice
mouse B 16 melanoma = assay: Inhibition of growth of B 16 melanoma; assay type: in vivo; conditions: intraperitoneally, 20 μg/kg 3 times per week
YAC-1 tumor cells = assay: Promotion of "natural killer" (NK) activity: chromium release from labelled YAC-1 cells by spleen cells of treated mice; assay type: in vivo, B6D2F1 strain mice; conditions: spleen cells taken three days after treatment, YAC-1 targets
[4] = test system: antibody response to sheep red cells; assay: Measurement of the antibody response (Jerne's technique); assay type: in vivo, male C 57 B1/6 mice; conditions: 1 mg/kg intravenously 48 hours before inoculation of sheep red cells, spleen cells five days later, mice

Compound | increase relative to the control of the capacity of the polynuclear leukocytes for non-specific phagocytosis [1] | increase in the weight of the ear greater than in the control batch [2] | animals protected against death by infection [3] | slowing of the growth of mouse B 16 melanoma (mouse B 16 melanoma) | release of chromium (increase with respect to the control) (YAC-1 tumor cells; 40 μg/kg) [%] | increase of the antibody response to sheep red cells [4] [%] | increase in the release of chromium with respect to the control (YAC-1 tumor cells; 25 μg/kg intravenously) [%]
C[C@@H](O)[C@H](N)C(=O)N[C@@H](CCCCN)C(=O)N1CCC[C@H]1C(=O)N[C@@H](CCCNC(=N)N)C(=O)O [tuftsin, Thr - Lys - Pro - Arg, reference compound] (H-TKPR-OH) | does not give a significant response | does not give a significant response | 20% | incapable of promoting a decrease in the rate of growth | 10 | – | –
C[C@H]1OC(=O)N[C@@H]1C(=O)N[C@@H](CCCCN)C(=O)N1C2CCC(CC2)[C@H]1C(=O)N[C@@H](CCCNC(=N)N)C(=O)O [Example 1, Cyclo(S)Thr-(S)Lys-(S)ABO-(S)Arg-OH] | – | 11% | all | – | – | 50 | 15
C[C@H]1OC(=O)N[C@@H]1C(=O)N[C@@H](CCCCN)C(=O)N1[C@H](C(=O)N[C@@H](CCCNC(=N)N)C(=O)O)C[C@@H]2CCCC[C@@H]21 [Example 9, Cyclo(S)Thr-(S)Lys-(S)PHI-(S)Arg-OH] | – | – | – | 45% | – | – | –
